Results are given in words; binding and its absence hold for the method and conditions named. Binding seen in cells or lysates may run through a third protein. Some entries that bind do so weakly or less than the wild type.
Target: T1, MD2, also known as lymphocyte antigen 96 (UniProt Q9JHF9)
T1 sequence: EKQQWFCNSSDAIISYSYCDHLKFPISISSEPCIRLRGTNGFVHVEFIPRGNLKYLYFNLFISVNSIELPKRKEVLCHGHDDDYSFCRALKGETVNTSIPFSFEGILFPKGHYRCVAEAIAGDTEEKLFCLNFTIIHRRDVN
Assay: co-IP; endogenous proteins; 1.5 ug biotinylated anti-MD2 (or anti-Clec7a) antibody with 400-500 ug protein sample overnight at 4 °C, Protein G magnetic beads 2 h at 4 °C, four washes with IP lysis buffer, immunoblot

B1: Clec7a (receptor, UniProt Q6QLQ4 1-244)
chain: MKYHSHIENLDEDGYTQLDFSTQDIHKRPRGSEKGSQAPSSPWRPIAVGLGILCFVVVVVAAVLGALGEYGHNSGRNPEEKDNFLSRNKENHKPTESSLDEKVAPSKASQTTGGFSQPCLPNWIMHGKSCYLFSFSGNSWYGSKRHCSQLGAHLLKIDNSKEFEFIESQTSSHRINAFWIGLSRNQSEGPWFWEDGSAFFPNSFQVRNTAPQESLLHNCVWIHGSEVYNQICNTSSYSICEKEL
binding: binds

From PMC11988799
